In the experiment the target is E-cadherin (mouse (endogenous in 4T1)). Description: co-IP.

The values below come from paper doi:10.1101/2024.02.02.578710.

Results are given in words; binding and its absence hold for the method and conditions named. Binding seen in cells or lysates may run through a third protein. Binding calls can cover weak binding; strength is not graded here.

B1: p120-catenin isoform 1 (protein, UniProt P30999 1-938)
chain: MDDSEVESTASILASVKEQEAQFEKLTRALEEERRHVSAQLERVRVSPQDANSLMANGTLTRRHQNGRFVGDADLERQKFSDLKLNGPQDHNHLLYSTIPRMQEPGQIVETYTEEDPEGAMSVVSVETTDDGTTRRTETTVKKVVKTMTTRTVQPVPMGPDGLPVDASAVSNNYIQTLGRDFRKNGNGGPGPYVGQAGTATLPRNFHYPPDGYGRHYEDGYPGGSDNYGSLSRVTRIEERYRPSMEGYRAPSRQDVYGPQPQVRVGGSSVDLHRFHPEPYGLEDDQRSMGYDDLDYGMMSDYGTARRTGTPSDPRRRLRSYEDMIGEEVPPDQYYWAPLAQHERGSLASLDSLRKGMPPPSNWRQPELPEVIAMLGFRLDAVKSNAAAYLQHLCYRNDKVKTDVRKLKGIPILVGLLDHPKKEVHLGACGALKNISFGRDQDNKIAIKNCDGVPALVRLLRKARDMDLTEVITGTLWNLSSHDSIKMEIVDHALHALTDEVIIPHSGWEREPNEDCKPRHIEWESVLTNTAGCLRNVSSERSEARRKLRECDGLVDALIFIVQAEIGQKDSDSKLVENCVCLLRNLSYQVHREIPQAERYQEALPTVANSTGPHAASCFGAKKGKDEWFSRGKKPTEDPANDTVDFPKRTSPARGYELLFQPEVVRIYISLLKESKTPAILEASAGAIQNLCAGRWTYGRYIRSALRQEKALSAIAELLTSEHERVVKAASGALRNLAVDARNKELIGKHAIPNLVKNLPGGQQNSSWNFSEDTVVSILNTINEVIAENLEAAKKLRETQGIEKLVLINKSGNRSEKEVRAAALVLQTIWGYKELRKPLEKEGWKKSDFQVNLNNASRSQSSHSYDDSTLPLIDRNQKSDKKPDREEIPMSNMGSNTKSLDNNYSTLNERGDHNRTLDRSGDLGDMEPLKGAPLMQKI
With B1, the binding entry is recorded as “binds”.
